Results as given in publication PMC11441496.
No constants are given. Whether binding was seen depends on the method and setting. A result given as binding can be weak or reduced; the word gives no strength.

Target: K. pneumoniae TOP52 FimH S62A (Klebsiella pneumoniae)
Assay: in vitro donor strand exchange, product purified by cation exchange; FimCGdb and FimChisH mixed at a 3:1 molar ratio in 20 mM MES (pH 5.6) at 30 °C for 16 h; FimCGdbH purified on a cation (S) exchange column; FimH entered the reaction bound to FimChis; both purified

B1: E. coli UTI89 FimG S138C (protein, UniProt P08190 24-167)
chain: ADVTITVNGKVVAKPCTVSTTNATVDLGDLYSFSLMSAGAASAWHDVALELTNCPVGTSRVTASFSGAADSTGYYKNQGTAQNIQLELQDDSGNTLNTGATKTVQVDDSSQSAHFPLQVRALTVNGGATQGTIQAVICITYTYS
binding: binds
